Experimental data reported in patent US20200345725A1, “Methods and Compositions for Treating Cancer” (Omeros Corporation, priority 2019, published 2020).
Some entries share one result that the patent states for a list of compounds.

Chains of the proteins cited; added tags and fusions are not shown. Lines headed by an entry give the natural chain unless they say otherwise; changes in a name come on top.
UniProt Q9BXC1: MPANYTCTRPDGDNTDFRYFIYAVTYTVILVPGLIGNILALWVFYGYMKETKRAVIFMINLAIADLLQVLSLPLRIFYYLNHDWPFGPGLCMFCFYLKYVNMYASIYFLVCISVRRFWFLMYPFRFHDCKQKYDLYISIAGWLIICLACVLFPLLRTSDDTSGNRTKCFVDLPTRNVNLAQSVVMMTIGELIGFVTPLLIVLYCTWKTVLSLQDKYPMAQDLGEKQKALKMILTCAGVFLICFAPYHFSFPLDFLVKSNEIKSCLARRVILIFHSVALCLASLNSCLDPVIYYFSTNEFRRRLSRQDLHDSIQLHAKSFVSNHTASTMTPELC

Target: GPR174 (Homo sapiens, UniProt Q9BXC1)
Assay: CRE-Luc reporter Gs signaling assay with GPR174
Type: cell-based
Parameters: host or cells: HEK293 or CHO cell lines (ATCC)
Settings: pCRE-Luc reporter

SMILES | Human GPR174 CRE Activity: nature of the compound (IA, antagonist, NM) | other results
CCc1ccc(C2C3=C(CCCC3=O)NC3=C2C(=O)c2ccccc23)cn1 (stereo not drawn) [compound 54] | GPR174 inverse agonists | –
Cc1cc(C(=O)N/N=C/c2cc(Br)ccc2O)c(C)o1 [compound 58] | – | Human GPR174 CRE Activity: nature of the compound (IA, antagonist, NM) (listed as Compound 58): GPR174 antagonists or allosteric modulators
CCOc1ccc(C2C3=C(CCCC3=O)NC3=C2C(=O)c2ccccc23)cc1OCC (stereo not drawn) [compound 30] | GPR174 inverse agonists | –
O=C(N/N=C/c1cc(Cl)ccc1O)c1ccncc1 [compound 57] | – | Human GPR174 CRE Activity: nature of the compound (IA, antagonist, NM) (listed as Compound 57): GPR174 antagonists or allosteric modulators
COc1ccc(C2C3=C(CCCC3=O)NC3=C2C(=O)c2ccccc23)cc1 (stereo not drawn) [compound 22] | GPR174 inverse agonists | –
CCOC(=O)N1CCN(c2cc(N3CCCCC3)c(F)cc2[N+](=O)[O-])CC1 [compound 7] | GPR174 inverse agonists | –
CC(=O)N1CCN(c2cc(N3CCC(C)CC3)c(F)cc2[N+](=O)[O-])CC1 [compound 13] | GPR174 inverse agonists | –
CCC(=O)N1CCN(c2cc(N3CCCCC3)c(F)cc2[N+](=O)[O-])CC1 [compound 9] | GPR174 inverse agonists | –
CC1CCN(c2cc(N3CCN(S(=O)(=O)c4ccccc4)CC3)c([N+](=O)[O-])cc2F)CC1 [compound 10] | GPR174 inverse agonists | –
COc1cccc(C2C3=C(CCCC3=O)NC3=C2C(=O)c2ccccc23)c1 (stereo not drawn) [compound 28] | GPR174 inverse agonists | –
CC(C)Oc1ccc(C2C3=C(CCCC3=O)NC3=C2C(=O)c2ccccc23)cc1 (stereo not drawn) [compound 49] | GPR174 inverse agonists | –
CC(=O)N1CCN(c2cc(N3CCCCC3)c(F)cc2[N+](=O)[O-])CC1 [compound 2] | GPR174 inverse agonists | –
Cc1nnc(-c2ccc(C3C4=C(CCCC4=O)NC4=C3C(=O)c3ccccc34)cc2)o1 (stereo not drawn) [compound 34] | GPR174 inverse agonists | –
CC(=O)c1ccc(N2CCN(C(=O)c3ccc(F)cc3)CC2)c(F)c1 [compound 3] | either GPR174 antagonists or allosteric modulators | Human GPR174 CRE Activity: nature of the compound (IA, antagonist, NM) (listed as Compound 3): GPR174 antagonists or allosteric modulators
CCC(=O)N1CCN(c2cc(N3CCC(C)CC3)c(F)cc2[N+](=O)[O-])CC1 [compound 8] | GPR174 inverse agonists | –
Cc1cc(Cc2ccc(NC(=O)c3cccs3)c(C)c2)ccc1NC(=O)c1cccs1 [compound 21] | – | Human GPR174 CRE Activity: nature of the compound (IA, antagonist, NM) (listed as Compound 21): GPR174 antagonists or allosteric modulators
CC1CCCCN1c1cc(N2CCN(C(=O)C(C)(C)C)CC2)c([N+](=O)[O-])cc1F (stereo not drawn) [compound 17] | GPR174 inverse agonists | –
C=C(C)COc1ccc(NC(=O)Nc2ccccc2)cc1 [compound 56] | GPR174 inverse agonists | –
CCOC(=O)N1CCN(c2cc(N3CCC(C)CC3)c(F)cc2[N+](=O)[O-])CC1 [compound 1] | GPR174 inverse agonists | –

SMILES | Human GPR174 CRE Activity: nature of the compound (IA, antagonist, NM) | other results
CCCC(=O)N1CCN(c2cc(N3CCCCC3)c(F)cc2[N+](=O)[O-])CC1 [compound 5] | GPR174 inverse agonists | –
Cc1ccc(S(=O)(=O)N2CCN(c3cc(N4CCCCC4)c(F)cc3[N+](=O)[O-])CC2)cc1 [compound 15] | GPR174 inverse agonists | –
CCOc1ccc(C2C3=C(CCCC3=O)NC3=C2C(=O)c2ccccc23)cc1 (stereo not drawn) [compound 23] | GPR174 inverse agonists | –
COc1cc(C2C3=C(CCCC3=O)NC3=C2C(=O)c2ccccc23)ccc1O (stereo not drawn) [compound 26] | GPR174 inverse agonists | –
CCCCOc1ccc(C2C3=C(CCCC3=O)NC3=C2C(=O)c2ccccc23)cc1 (stereo not drawn) [compound 31] | GPR174 inverse agonists | –
Cc1ccc(S(=O)(=O)N2CCN(c3cc(N4CCC(C)CC4)c(F)cc3[N+](=O)[O-])CC2)cc1 [compound 14] | GPR174 inverse agonists | –
O=C1CCCC2=C1C(c1ccc(OC(F)(F)F)cc1)C1=C(N2)c2ccccc2C1=O (stereo not drawn) [compound 48] | GPR174 inverse agonists | –
CC(C)c1ccc(C2C3=C(CCCC3=O)NC3=C2C(=O)c2ccccc23)cc1 (stereo not drawn) [compound 29] | GPR174 inverse agonists | –
O=C1CCCC2=C1C(c1cccc(O)c1)C1=C(N2)c2ccccc2C1=O (stereo not drawn) [compound 24] | GPR174 inverse agonists | –
Cc1ccc(-c2nnc(Nc3ccccc3)c3ccccc23)cc1S(N)(=O)=O [compound 19] | either GPR174 antagonists or allosteric modulators | Human GPR174 CRE Activity: nature of the compound (IA, antagonist, NM) (listed as Compound 19): GPR174 antagonists or allosteric modulators
Cc1ccccc1Nc1nnc(-c2ccc(C)c(S(N)(=O)=O)c2)c2ccccc12 [compound 20] | either GPR174 antagonists or allosteric modulators | Human GPR174 CRE Activity: nature of the compound (IA, antagonist, NM) (listed as Compound 20): GPR174 antagonists or allosteric modulators
CC(C)C(=O)N1CCN(c2cc(N3CCCCC3C)c(F)cc2[N+](=O)[O-])CC1 (stereo not drawn) [compound 16] | GPR174 inverse agonists | –
CC(C)(C)Oc1ccc(C2C3=C(CCCC3=O)NC3=C2C(=O)c2ccccc23)cc1 (stereo not drawn) [compound 44] | GPR174 inverse agonists | –
CCOc1ccc(C2C3=C(CCCC3=O)NC3=C2C(=O)c2ccccc23)cn1 (stereo not drawn) [compound 55] | GPR174 inverse agonists | –
O=[N+]([O-])c1cc(F)c(N2CCCCC2)cc1N1CCN(S(=O)(=O)c2ccccc2)CC1 [compound 11] | GPR174 inverse agonists | –
CCc1ccc(C2C3=C(CCCC3=O)NC3=C2C(=O)c2ccccc23)cc1 (stereo not drawn) [compound 27] | GPR174 inverse agonists | –
O=C(c1ccccc1)N1CCN(c2cc(N3CCCCC3)c(F)cc2[N+](=O)[O-])CC1 [compound 6] | GPR174 inverse agonists | –
CCOc1cccc(C2C3=C(CCCC3=O)NC3=C2C(=O)c2ccccc23)c1 (stereo not drawn) [compound 51] | GPR174 inverse agonists | –
O=C1CCCC2=C1C(c1ccc(N3CCCC3=O)cc1)C1=C(N2)c2ccccc2C1=O (stereo not drawn) [compound 43] | GPR174 inverse agonists | –

SMILES | Human GPR174 CRE Activity: nature of the compound (IA, antagonist, NM) | other results
O=C1CCCC2=C1C(c1ccncc1)C1=C(N2)c2ccccc2C1=O (stereo not drawn) [compound 42] | GPR174 inverse agonists | –
O=C1CCCC2=C1C(c1cccnc1)C1=C(N2)c2ccccc2C1=O (stereo not drawn) [compound 37] | GPR174 inverse agonists | –
CS(=O)(=O)c1ccc(C2C3=C(CCCC3=O)NC3=C2C(=O)c2ccccc23)cc1 (stereo not drawn) [compound 40] | GPR174 inverse agonists | –
O=C1CCCC2=C1C(c1ccc(-c3ccccc3)cc1)C1=C(N2)c2ccccc2C1=O (stereo not drawn) [compound 32] | GPR174 inverse agonists | –
O=C1CCCC2=C1C(c1ccc(OCCO)cc1)C1=C(N2)c2ccccc2C1=O (stereo not drawn) [compound 33] | GPR174 inverse agonists | –
CCCCCCOc1ccc(C2C3=C(CCCC3=O)NC3=C2C(=O)c2ccccc23)cc1 (stereo not drawn) [compound 52] | GPR174 inverse agonists | –
C=CCOc1ccc(C2C3=C(CCCC3=O)NC3=C2C(=O)c2ccccc23)cc1 (stereo not drawn) [compound 50] | GPR174 inverse agonists | –
CCCOc1ccc(C2C3=C(CCCC3=O)NC3=C2C(=O)c2ccccc23)cc1 (stereo not drawn) [compound 41] | GPR174 inverse agonists | –
O=[N+]([O-])c1cc(F)c(N2CCCCCC2)cc1N1CCN(S(=O)(=O)c2ccccc2)CC1 [compound 53] | GPR174 inverse agonists | –
CCCC(=O)c1ccc(N2CCN(S(=O)(=O)c3ccc(C)cc3)CC2)c(F)c1 [compound 4] | either GPR174 antagonists or allosteric modulators | –
CC1CCN(c2cc(N3CCN(C(=O)c4cccs4)CC3)c([N+](=O)[O-])cc2F)CC1 [compound 12] | GPR174 inverse agonists | –
O=C1CCCC2=C1C(c1ccc(Cl)cc1)C1=C(N2)c2ccccc2C1=O (stereo not drawn) [compound 39] | GPR174 inverse agonists | –
O=C1CCCC2=C1C(c1ccc(OC(F)F)cc1)C1=C(N2)c2ccccc2C1=O (stereo not drawn) [compound 46] | GPR174 inverse agonists | –
O=C1CCCC2=C1C(c1ccc(OC3CCCC3)cc1)C1=C(N2)c2ccccc2C1=O (stereo not drawn) [compound 45] | GPR174 inverse agonists | –
O=C1CCCC2=C1C(c1ccc(F)cc1)C1=C(N2)c2ccccc2C1=O (stereo not drawn) [compound 35] | GPR174 inverse agonists | –
CCOC(=O)N1CCN(c2cc(N3CCCCC3C)c(F)cc2[N+](=O)[O-])CC1 (stereo not drawn) [compound 18] | GPR174 inverse agonists | –
O=C1CCCC2=C1C(c1ccc(Oc3ccccc3)cc1)C1=C(N2)c2ccccc2C1=O (stereo not drawn) [compound 47] | GPR174 inverse agonists | –
O=C1CCCC2=C1C(c1ccc3c(c1)OCCO3)C1=C(N2)c2ccccc2C1=O (stereo not drawn) [compound 36] | GPR174 inverse agonists | –
O=C1CCCC2=C1C(c1ccccc1)C1=C(N2)c2ccccc2C1=O (stereo not drawn) [compound 25] | GPR174 inverse agonists | –
